B1: CD62E (protein, UniProt P16581 22-610, looked up)
E-selectin: WSYNTSTEAMTYDEASAYCQQRYTHLVAIQNKEEIEYLNSILSYSPSYYWIGIRKVNNVWVWVGTQKPLTEEAKNWAPGEPNNRQKDEDCVEIYIKREKDVGMWNDERCSKKKLALCYTAACTNTSCSGHGECVETINNYTCKCDPGFSGLKCEQIVNCTALESPEHGSLVCSHPLGNFSYNSSCSISCDRGYLPSSMETMQCMSSGEWSAPIPACNVVECDAVTNPANGFVECFQNPGSFPWNTTCTFDCEEGFELMGAQSLQCTSSGNWDNEKPTCKAVTCRAVRQPQNGSVRCSHSPAGEFTFKSSCNFTCEEGFMLQGPAQVECTTQGQWTQQIPVCEAFQCTALSNPERGYMNCLPSASGSFRYGSSCEFSCEQGFVLKGSKRLQCGPTGEWDNEKPTCEAVRCDAVHQPPKGLVRCAHSPIGEFTYKSSCAFSCEEGFELHGSTQLECTSQGQWTEEVPSCQVVKCSSLAVPGKINMSCSGEPVFGTVCKFACPEGWTLNGSAARTCGATGHWSGLLPTCEAPTESNIPLVAGLSAAGLSLLTLAPFLLWLRKCLRKAKKFVPASSCQSLESDGSYQKPSYIL
B2: CD10 (protein, UniProt P08473 2-750, looked up)
Neprilysin: GKSESQMDITDINTPKPKKKQRWTPLEISLSVLVLLLTIIAVTMIALYATYDDGICKSSDCIKSAARLIQNMDATTEPCTDFFKYACGGWLKRNVIPETSSRYGNFDILRDELEVVLKDVLQEPKTEDIVAVQKAKALYRSCINESAIDSRGGEPLLKLLPDIYGWPVATENWEQKYGASWTAEKAIAQLNSKYGKKVLINLFVGTDDKNSVNHVIHIDQPRLGLPSRDYYECTGIYKEACTAYVDFMISVARLIRQEERLPIDENQLALEMNKVMELEKEIANATAKPEDRNDPMLLYNKMTLAQIQNNFSLEINGKPFSWLNFTNEIMSTVNISITNEEDVVVYAPEYLTKLKPILTKYSARDLQNLMSWRFIMDLVSSLSRTYKESRNAFRKALYGTTSETATWRRCANYVNGNMENAVGRLYVEAAFAGESKHVVEDLIAQIREVFIQTLDDLTWMDAETKKRAEEKALAIKERIGYPDDIVSNDNKLNNEYLELNYKEDEYFENIIQNLKFSQSKQLKKLREKVDKDEWISGAAVVNAFYSSGRNQIVFPAGILQPPFFSAQQSNSLNYGGIGMVIGHEITHGFDDNGRNFNKDGDLVDWWTQQSASNFKEQSQCMVYQYGNFSWDLAGGQHLNGINTLGENIADNGGLGQAYRAYQNYIKKNGEEKLLPGLDLNHKQLFFLNFAQVWCGTYRPEYAVNSIKTDVHSPGNFRIIGTLQNSAEFSEAFHCRKNSYMNPEKKCRVW
B3: CD337 (protein, UniProt O14931 19-201, looked up)
Natural cytotoxicity …: LWVSQPPEIRTLEGSSAFLPCSFNASQGRLAIGSVTWFRDEVVPGKEVRNGTPEFRGRLAPLASSRFLHDHQAELHIRDVRGHDASIYVCRVEVLGLGVGTGNGTRLVVEKEHPQLGAGTVLLLRAGFYAVSFLSVAVGSTVYYQGKCLTWKGPRRQLPAVVPAPLPPPCGSSAHLLPPVPGG
B4: CD45 (protein, UniProt P08575 26-1306, looked up)
Receptor-type …: QSPTPSPTGLTTAKMPSVPLSSDPLPTHTTAFSPASTFERENDFSETTTSLSPDNTSTQVSPDSLDNASAFNTTGVSSVQTPHLPTHADSQTPSAGTDTQTFSGSAANAKLNPTPGSNAISDVPGERSTASTFPTDPVSPLTTTLSLAHHSSAALPARTSNTTITANTSDAYLNASETTTLSPSGSAVISTTTIATTPSKPTCDEKYANITVDYLYNKETKLFTAKLNVNENVECGNNTCTNNEVHNLTECKNASVSISHNSCTAPDKTLILDVPPGVEKFQLHDCTQVEKADTTICLKWKNIETFTCDTQNITYRFQCGNMIFDNKEIKLENLEPEHEYKCDSEILYNNHKFTNASKIIKTDFGSPGEPQIIFCRSEAAHQGVITWNPPQRSFHNFTLCYIKETEKDCLNLDKNLIKYDLQNLKPYTKYVLSLHAYIIAKVQRNGSAAMCHFTTKSAPPSQVWNMTVSMTSDNSMHVKCRPPRDRNGPHERYHLEVEAGNTLVRNESHKNCDFRVKDLQYSTDYTFKAYFHNGDYPGEPFILHHSTSYNSKALIAFLAFLIIVTSIALLVVLYKIYDLHKKRSCNLDEQQELVERDDEKQLMNVEPIHADILLETYKRKIADEGRLFLAEFQSIPRVFSKFPIKEARKPFNQNKNRYVDILPYDYNRVELSEINGDAGSNYINASYIDGFKEPRKYIAAQGPRDETVDDFWRMIWEQKATVIVMVTRCEEGNRNKCAEYWPSMEEGTRAFGDVVVKINQHKRCPDYIIQKLNIVNKKEKATGREVTHIQFTSWPDHGVPEDPHLLLKLRRRVNAFSNFFSGPIVVHCSAGVGRTGTYIGIDAMLEGLEAENKVDVYGYVVKLRRQRCLMVQVEAQYILIHQALVEYNQFGETEVNLSELHPYLHNMKKRDPPSEPSPLEAEFQRLPSYRSWRTQHIGNQEENKSKNRNSNVIPYDYNRVPLKHELEMSKESEHDSDESSDDDSDSEEPSKYINASFIMSYWKPEVMIAAQGPLKETIGDFWQMIFQRKVKVIVMLTELKHGDQEICAQYWGEGKQTYGDIEVDLKDTDKSSTYTLRVFELRHSKRKDSRTVYQYQYTNWSVEQLPAEPKELISMIQVVKQKLPQKNSSEGNKHHKSTPLLIHCRDGSQQTGIFCALLNLLESAETEEVVDIFQVVKALRKARPGMVSTFEQYQFLYDVIASTYPAQNGQVKKNNHQEDKIEFDNEVDKVKQDANCVNPLGAPEKLPEAKEQAEGSEPTSGTEGPEHSVNGPASPALNQGS
B5: CD36L1 (protein, UniProt Q8WTV0 1-552, looked up)
Scavenger receptor class B …: MGCSAKARWAAGALGVAGLLCAVLGAVMIVMVPSLIKQQVLKNVRIDPSSLSFNMWKEIPIPFYLSVYFFDVMNPSEILKGEKPQVRERGPYVYREFRHKSNITFNNNDTVSFLEYRTFQFQPSKSHGSESDYIVMPNILVLGAAVMMENKPMTLKLIMTLAFTTLGERAFMNRTVGEIMWGYKDPLVNLINKYFPGMFPFKDKFGLFAELNNSDSGLFTVFTGVQNISRIHLVDKWNGLSKVDFWHSDQCNMINGTSGQMWPPFMTPESSLEFYSPEACRSMKLMYKESGVFEGIPTYRFVAPKTLFANGSIYPPNEGFCPCLESGIQNVSTCRFSAPLFLSHPHFLNADPVLAEAVTGLHPNQEAHSLFLDIHPVTGIPMNCSVKLQLSLYMKSVAGIGQTGKIEPVVLPLLWFAESGAMEGETLHTFYTQLVLMPKVMHYAQYVLLALGCVLLLVPVICQIRSQVGAGQRAARADSHSLACWGKGASDRTLWPTAAWSPPPAAVLRLCRSGSGHCWGLRSTLASFACRVATTLPVLEGLGPSLGGGTGS
B6: CD55 (protein, UniProt P08174 35-353, looked up)
Complement decay-accelerating …: DCGLPPDVPNAQPALEGRTSFPEDTVITYKCEESFVKIPGEKDSVICLKGSQWSDIEEFCNRSCEVPTRLNSASLKQPYITQNYFPVGTVVEYECRPGYRREPSLSPKLTCLQNLKWSTAVEFCKKKSCPNPGEIRNGQIDVPGGILFGATISFSCNTGYKLFGSTSSFCLISGSSVQWSDPLPECREIYCPAPPQIDNGIIQGERDHYGYRQSVTYACNKGFTMIGEHSIYCTVNNDEGEWSGPPPECRGKSLTSKVPPTVQKPTTVNVPTTEVSPTSQKTTTKTTTPNAQATRSTPVSRTTKHFHETTPNKGSGTTS
B7: CD365 (protein, UniProt Q96D42 21-364, looked up)
Hepatitis A virus cellular …: SVKVGGEAGPSVTLPCHYSGAVTSMCWNRGSCSLFTCQNGIVWTNGTHVTYRKDTRYKLLGDLSRRDVSLTIENTAVSDSGVYCCRVEHRGWFNDMKITVSLEIVPPKVTTTPIVTTVPTVTTVRTSTTVPTTTTVPMTTVPTTTVPTTMSIPTTTTVLTTMTVSTTTSVPTTTSIPTTTSVPVTTTVSTFVPPMPLPRQNHEPVATSPSSPQPAETHPTTLQGAIRREPTSSPLYSYTTDGNDTVTESSDGLWNNNQTQLFLEHSLLTANTTKGIYAGVCISVLVLLALLGVIIAKKYFFKKEVQQLSVSFSSLQIKALQNAVEKEVQAEDNIYIENSLYATD
B8: CD344 (protein, UniProt Q9ULV1 37-537, looked up)
Frizzled-4: FGDEEERRCDPIRISMCQNLGYNVTKMPNLVGHELQTDAELQLTTFTPLIQYGCSSQLQFFLCSVYVPMCTEKINIPIGPCGGMCLSVKRRCEPVLKEFGFAWPESLNCSKFPPQNDHNHMCMEGPGDEEVPLPHKTPIQPGEECHSVGTNSDQYIWVKRSLNCVLKCGYDAGLYSRSAKEFTDIWMAVWASLCFISTAFTVLTFLIDSSRFSYPERPIIFLSMCYNIYSIAYIVRLTVGRERISCDFEEAAEPVLIQEGLKNTGCAIIFLLMYFFGMASSIWWVILTLTWFLAAGLKWGHEAIEMHSSYFHIAAWAIPAVKTIVILIMRLVDADELTGLCYVGNQNLDALTGFVVAPLFTYLVIGTLFIAAGLVALFKIRSNLQKDGTKTDKLERLMVKIGVFSVLYTVPATCVIACYFYEISNWALFRYSADDSNMAVEMLKIFMSLLVGITSGMWIWSAKTLHTWQKCSNRLVNSGKVKREKRGNGWVKPGKGSETVV
B9: CD336 (protein, UniProt O95944 22-276, looked up)
Natural cytotoxicity …: QSKAQVLQSVAGQTLTVRCQYPPTGSLYEKKGWCKEASALVCIRLVTSSKPRTMAWTSRFTIWDDPDAGFFTVTMTDLREEDSGHYWCRIYRPSDNSVSKSVRFYLVVSPASASTQTSWTPRDLVSSQTQTQSCVPPTAGARQAPESPSTIPVPSQPQNSTLRPGPAAPIALVPVFCGLLVAKSLVLSALLVWWGDIWWKTMMELRSLDTQKATCHLQQVTDLPWTSVSSPVEREILYHTVARTKISDDDDEHTL

Key:
Assay in all cases: High-throughput cell-surface marker screening (LEGENDScreen), %PE+
Format in all cases: cell-based, human
Details in all cases: percentage of cells bound to the PE-conjugated antibody (LEGENDScreen)
D3.5 SOX17-GFP- non-PGCs = tested on: D3.5 SOX17-GFP- non-PGCs
D3.5 SOX17-GFP+ PGCs = tested on: D3.5 SOX17-GFP+ PGCs
[1] = tested on: undifferentiated hPSC (D0)

Row | Molecule | % PE+ in non-PGCs (D3.5 SOX17-GFP- non-PGCs) [%] | % PE+ in PGCs (D3.5 SOX17-GFP+ PGCs) [%] | % PE+ in H1 UD [1] [%]
1 | B1 | 0.0001531 | 0 | 0.13
2 | B2 | 0.4265 | 0.5426 | 99.7
3 | B3 | 2.429E-05 | 0 | 0.27
4 | B4 | 0.01863 | 0.007105 | 0.2
5 | B5 | 0 | 0 | 99.5
6 | B6 | 0.007286 | 0.05532 | 99.8
7 | B7 | 0.5091 | 0.3529 | 0.28
8 | B8 | 0.3957 | 0.575 | 96.5
9 | B9 | 3.219E-05 | 0 | 0.24

Source: patent US20230242871A1, “GENERATION OF PRIMORDIAL GERM CELLS AND METHODS OF USING THE SAME” (The Board of Trustees of the Leland Stanfor Junior …, priority 2020, published 2023)
